# In patent US20240254229A1 (Molecular Partners, published 2024):
# Biological target: biotinylated extracellular domains of cyno CD123 (uniprot ID G8F3K3), Fc format (cyno)
# Assay: crude extract HTRF, 6 nM biotinylated CD123
row,binding,Binder
1,binds,"DARPin® protein #64 (designed binder, CD123-specific domain; screened as crude extract) DLGWKLLDAAEIGQDDEVRILLAAGADVNAKDKQGITPLHIAAAHGHLEIVEVLLKAGADVNAKDEIGRTPLHLAAFKGHLEIVEVLLKAGADVNAQDIIGETPADLAAVRGHEDIAEVLQKAA"
2,binds,"DARPin® protein #63 (designed binder, CD123-specific domain; screened as crude extract) DLGKKLLQAARAGQLDEVRELLKAGADVNAKDQYGRTPLHLAAIKGHLEIVEVLLKAGADVNAKDSLGYTPLHLAAVEGPLEIVEVLLKAGADVNAKDAYGQTPLHIAAAWGHLEIVEVLLKAVADVNAQDKSGKTPADLAARAGHQDIAEVLQKAA"
3,binds,"DARPin® protein #6 (designed binder, CD123-specific domain) DLGKKLLEAARAGQDDEVRILMANGADVNALDWLGHTPLHLAAYEGHLEIVEVLLKNGADVNAIDDNNGFTPLHLAAIDGHLEIVEVLLKNGADVNAQDKFGKTAFDISIDNGNEDLAEILQKAA"

# Biological target: biotinylated extracellular domains of cyno CD123 (uniprot ID G8F3K3), Fc format (cyno)
# Assay: ribosome display selection, crude extract HTRF
row,binding,Binder
1,binds,"DARPin® protein #34 (designed binder, CD123-specific ankyrin repeat domain; not shown: N-terminal His-tag) DLGKKLLEAALEGQLDEVRELLKAGADVNAKDQEGYTPLHLAAALGHLEIVEVLLKAGADVNAKDSIGRTPLHLAAYKGHLEIVEVLLKAGADVNAQDLLGETPADLAAEQGHQDIAEVLQKAA"
2,binds,"DARPin® protein #35 (designed binder, CD123-specific domain; screened as crude extract) DLGKKLLEAALEGQDDEVRELLKAGADVNAKDQEGYTPLHLAAALGHLEIVEVLLKAGADVNAKDSIGRTPLHLAAYKGHLEIVEVLLKAGADVNAQDLLGETPADLAAEQGHEDIAEVLQKAA"
3,binds,"DARPin® protein #6 (designed binder, CD123-specific domain) DLGKKLLEAARAGQDDEVRILMANGADVNALDWLGHTPLHLAAYEGHLEIVEVLLKNGADVNAIDDNNGFTPLHLAAIDGHLEIVEVLLKNGADVNAQDKFGKTAFDISIDNGNEDLAEILQKAA"

# No constants are given. Whether binding was seen depends on the method and setting. A result given as binding can be weak or reduced; the word gives no strength.
